Results on two molecules are retold here after paper PMC2941750.

Amino acid sequences for entries named in this document (tags omitted).
UniProt Q9HAU4: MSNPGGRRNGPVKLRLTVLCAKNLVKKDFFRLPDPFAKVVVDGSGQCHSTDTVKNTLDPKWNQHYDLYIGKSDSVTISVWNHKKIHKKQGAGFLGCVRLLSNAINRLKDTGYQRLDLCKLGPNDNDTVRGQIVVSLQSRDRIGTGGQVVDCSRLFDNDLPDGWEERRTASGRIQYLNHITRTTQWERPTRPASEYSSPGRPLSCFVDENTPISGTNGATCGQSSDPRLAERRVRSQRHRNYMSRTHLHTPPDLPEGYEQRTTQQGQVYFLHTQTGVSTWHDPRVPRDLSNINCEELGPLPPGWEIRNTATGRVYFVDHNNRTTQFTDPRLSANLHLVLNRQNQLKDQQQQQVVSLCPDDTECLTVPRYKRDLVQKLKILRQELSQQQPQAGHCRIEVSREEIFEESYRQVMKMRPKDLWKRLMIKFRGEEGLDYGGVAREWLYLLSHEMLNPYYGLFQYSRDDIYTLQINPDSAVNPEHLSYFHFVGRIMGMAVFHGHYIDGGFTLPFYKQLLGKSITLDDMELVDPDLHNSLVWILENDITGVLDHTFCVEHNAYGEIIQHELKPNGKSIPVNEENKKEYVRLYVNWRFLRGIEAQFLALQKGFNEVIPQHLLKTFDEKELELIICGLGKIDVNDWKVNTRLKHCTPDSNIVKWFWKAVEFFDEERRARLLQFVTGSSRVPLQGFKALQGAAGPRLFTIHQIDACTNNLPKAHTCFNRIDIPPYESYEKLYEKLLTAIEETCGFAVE

No constants are given. Whether binding was seen depends on the method and setting. Binding seen in cells or lysates may run through a third protein. Some entries that bind do so weakly or less than the wild type.

For test [1], the target named is T1, NEDD9 (neural precursor cell expressed, developmentally down-regulated 9) (human (endogenous in HeLa)) (UniProt Q14511).
T1 sequence: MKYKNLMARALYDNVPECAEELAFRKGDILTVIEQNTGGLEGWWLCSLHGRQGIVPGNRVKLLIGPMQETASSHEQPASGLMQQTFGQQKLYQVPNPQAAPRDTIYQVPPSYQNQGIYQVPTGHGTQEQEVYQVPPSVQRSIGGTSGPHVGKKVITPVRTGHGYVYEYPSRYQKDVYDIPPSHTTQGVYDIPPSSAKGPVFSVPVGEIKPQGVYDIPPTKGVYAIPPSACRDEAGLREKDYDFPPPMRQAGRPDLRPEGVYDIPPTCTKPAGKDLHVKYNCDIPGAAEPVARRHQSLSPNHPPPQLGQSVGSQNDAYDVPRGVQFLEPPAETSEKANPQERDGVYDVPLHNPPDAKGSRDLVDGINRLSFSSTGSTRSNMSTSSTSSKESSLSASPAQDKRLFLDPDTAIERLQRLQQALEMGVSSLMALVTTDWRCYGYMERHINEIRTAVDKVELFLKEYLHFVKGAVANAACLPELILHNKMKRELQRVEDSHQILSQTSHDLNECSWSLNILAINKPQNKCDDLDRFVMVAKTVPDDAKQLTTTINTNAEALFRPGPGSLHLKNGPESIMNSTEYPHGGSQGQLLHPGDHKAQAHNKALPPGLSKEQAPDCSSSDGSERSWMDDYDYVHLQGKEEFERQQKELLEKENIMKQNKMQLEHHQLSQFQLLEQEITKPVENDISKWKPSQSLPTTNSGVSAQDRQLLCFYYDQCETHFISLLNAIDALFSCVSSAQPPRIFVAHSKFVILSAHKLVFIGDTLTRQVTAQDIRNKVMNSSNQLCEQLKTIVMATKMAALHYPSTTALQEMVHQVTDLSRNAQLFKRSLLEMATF
Briefly: co-IP; endogenous proteins from HeLa extracts, asynchronous or synchronized at mitosis by thymidine-nocodazole; 400 ug total protein with 1.5 ug antibody overnight at 4°C, protein A (Smurf2 IP) or protein G (NEDD9 IP) beads 1 h at 4°C; immunoblotting; normal IgG as control; co-precipitation less obvious in asynchronous cells. In general terms: Immunoblotting shows a protein as a band on a membrane.

Test [2] concerns the target Smurf2 (Smad ubiquitination regulatory factor 2) (human (endogenous in HeLa)) (UniProt Q9HAU4). The description is as above.

With “Smurf2 (Smad ubiquitination regulatory factor 2) (from UniProt Q9HAU4 1-748)”, in test [1], the binding entry is “binds”.

B1: NEDD9 (neural precursor cell expressed, developmentally down-regulated 9) (protein, UniProt Q14511 1-834)
chain: MKYKNLMARALYDNVPECAEELAFRKGDILTVIEQNTGGLEGWWLCSLHGRQGIVPGNRVKLLIGPMQETASSHEQPASGLMQQTFGQQKLYQVPNPQAAPRDTIYQVPPSYQNQGIYQVPTGHGTQEQEVYQVPPSVQRSIGGTSGPHVGKKVITPVRTGHGYVYEYPSRYQKDVYDIPPSHTTQGVYDIPPSSAKGPVFSVPVGEIKPQGVYDIPPTKGVYAIPPSACRDEAGLREKDYDFPPPMRQAGRPDLRPEGVYDIPPTCTKPAGKDLHVKYNCDIPGAAEPVARRHQSLSPNHPPPQLGQSVGSQNDAYDVPRGVQFLEPPAETSEKANPQERDGVYDVPLHNPPDAKGSRDLVDGINRLSFSSTGSTRSNMSTSSTSSKESSLSASPAQDKRLFLDPDTAIERLQRLQQALEMGVSSLMALVTTDWRCYGYMERHINEIRTAVDKVELFLKEYLHFVKGAVANAACLPELILHNKMKRELQRVEDSHQILSQTSHDLNECSWSLNILAINKPQNKCDDLDRFVMVAKTVPDDAKQLTTTINTNAEALFRPGPGSLHLKNGPESIMNSTEYPHGGSQGQLLHPGDHKAQAHNKALPPGLSKEQAPDCSSSDGSERSWMDDYDYVHLQGKEEFERQQKELLEKENIMKQNKMQLEHHQLSQFQLLEQEITKPVENDISKWKPSQSLPTTNSGVSAQDRQLLCFYYDQCETHFISLLNAIDALFSCVSSAQPPRIFVAHSKFVILSAHKLVFIGDTLTRQVTAQDIRNKVMNSSNQLCEQLKTIVMATKMAALHYPSTTALQEMVHQVTDLSRNAQLFKRSLLEMATF
On to B1, for which, in test [2], the binding entry was “binds”.
